{"source": "the supplement of paper PMC10689618", "note": "This is one part of the list. Single values are uncertain, as repeats are few or missing.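 Primary human fetal astrocytes engulfed labelled rat cortical synaptosomes, measured as a red/green ratio corrected for calcein live-cell signal and scaled to the plate median. Toxicity meant calcein falling over 30%; decreased phagocytosis meant below 70% of median above 5 µM.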", "data": [{"system": "Human fetal astrocytes", "experiment": "loss of total cells relative to no-compound high-control median (toxicity); higher = more toxic (fewer cells)", "conditions": "1.39 µM; 24 h", "units": {"loss of total cells": "%"}, "values": [{"smiles": "COc1cc(C(=O)N2CCOCC2)cc(OC)c1OC", "loss of total cells": 15.3}, {"smiles": "CO[C@H]1C[C@H](O[C@H]2[C@H](C)[C@@H](O[C@@H]3O[C@H](C)C[C@H](N(C)C)[C@H]3O)[C@@H](C)C[C@@]3(CO3)C(=O)[C@H](C)[C@@H](O)[C@@H](C)[C@@H](C)OC(=O)[C@@H]2C)O[C@@H](C)[C@@H]1O", "loss of total cells": 0.9}, {"smiles": "COC(=O)[C@H]1[C@H]2C[C@H]3c4[nH]c5cc(OC)ccc5c4CCN3C[C@H]2C[C@@H](OC(=O)c2cc(OC)c(OC)c(OC)c2)[C@@H]1OC", "loss of total cells": 6.9}, {"smiles": "CCOc1ccc(C(=O)c2ccc(OC)c(O)c2O)cc1", "loss of total cells": -4}, {"smiles": "Cc1ncc(C[n+]2csc(CCO)c2C)c(N)n1", "loss of total cells": -26.6}, {"smiles": "CCC(=O)OCC(=O)[C@@]1(OC(=O)CC)[C@@H](C)C[C@H]2[C@@H]3CCC4=CC(=O)C=C[C@]4(C)[C@@]3(F)[C@@H](O)C[C@@]21C", "loss of total cells": -26.6}, {"smiles": "O=C1C(CC[S+]([O-])c2ccccc2)C(=O)N(c2ccccc2)N1c1ccccc1", "note": "(centres undefined)", "loss of total cells": 0.9}, {"smiles": "CCCN(CCC)S(=O)(=O)c1ccc(C(=O)O)cc1", "loss of total cells": 8.6}, {"smiles": "CC1(C)S[C@@H]2[C@H](N3C(=O)[C@@H](c4ccccc4)NC3(C)C)C(=O)N2[C@H]1C(=O)O", "loss of total cells": 9.2}, {"smiles": "COc1c(O)cc(O)cc1O", "loss of total cells": -9.1}, {"smiles": "Cc1c(N(C)C)c(=O)n(-c2ccccc2)n1C", "loss of total cells": 22.7}, {"smiles": "C[N+](C)(C)CCOP(=O)(O)OP(=O)([O-])OC[C@H]1O[C@@H](n2ccc(N)nc2=O)[C@H](O)[C@@H]1O", "loss of total cells": -38.7}, {"smiles": "COC(=O)C[C@H]1C(C)(C)[C@@H](OC(C)=O)[C@@H]2CC3C4CC(=O)O[C@@H](c5ccoc5)[C@]4(C)CCC3[C@@]1(C)C2=O", "note": "(some centres undefined)", "loss of total cells": 1.8}, {"smiles": "CCOc1ccc2ccccc2c1C(=O)N[C@@H]1C(=O)N2[C@@H]1SC(C)(C)[C@@H]2C(=O)O", "loss of total cells": -30.7}, {"smiles": "CN1C(=O)OC(C)(C)C1=O", "loss of total cells": -23.4}, {"smiles": "Cn1c([N+](=O)[O-])cnc1COC(N)=O", "loss of total cells": -13.3}, {"smiles": "OC(CCN1CCCCC1)(c1ccccc1)C1CC2C=CC1C2", "note": "(centres undefined)", "loss of total cells": -32.3}, {"smiles": "COc1c(-c2coc3cc4c(cc3c2=O)CC(O)C(C)(C)O4)ccc2c1C=CC(C)(C)O2", "note": "(centres undefined)", "loss of total cells": -32.2}, {"smiles": "NCCOB(c1ccccc1)c1ccccc1", "loss of total cells": -27.9}, {"smiles": "CC1=CCCC(C)=CCC(C)(C)C=CC1", "note": "[HUMULENE (alpha)]", "loss of total cells": -18.9}, {"smiles": "C=CC(C1=CC(=O)C(OC)=CC1=O)c1ccc(O)cc1", "note": "(centres undefined)", "loss of total cells": 33}, {"smiles": "CCC[C@@H]1C[C@@H](C(=O)N[C@@H]([C@H]2O[C@H](SC)[C@H](O)[C@@H](O)[C@H]2O)[C@@H](C)O)N(C)C1", "loss of total cells": -13.4}, {"smiles": "CCOC(=O)c1c(C)cc(O)cc1O", "loss of total cells": -4}, {"smiles": "Nc1ccccc1C(=O)CC(N)C(=O)O", "note": "(centres undefined)", "loss of total cells": 4.1}]}]}
